In PubChem BioAssay AID493014 (National Center for Advancing Translational Sciences (NCATS), 2011):
The whole screen tested about 340,000 compounds, of which about 170 (0.05%) were called active. The inconclusive results got no clear call from the source; some entries with a clear call stand among them for comparison. Calls follow the shape of the dose curve; as a rule, active = well fitted inhibition curve with a large enough effect in the signal ratio, with a control signal flat (not every such curve was filed as active); inconclusive = small, poorly fitted or top-dose-only effect, or effect the other way, or a change in a side signal; inactive = flat fitted curve, though single readings scatter; the % refers to the signal ratio. Potencies of inconclusive entries are doubtful fits and often do not repeat.

Assay: qHTS Assay to Find Inhibitors of Chronic Active B-Cell Receptor Signaling;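 as to activity change, negative = inhibition: plate controls were basal doxycycline-induced cells for no effect and cells given 10 µM MG132 for full effect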
Conditions: ABC-DLBCL IkBa-CBG/CBR reporter, luminescence ratio (green luciferase fused to IkBa over red control in TMD8 lymphoma cells), 4 h; activity change, negative = inhibition: at 46.1 µM (top of the series) unless noted
How it was run: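 Concentration-response series (up to 46 uM) were applied to TMD8 dual-reporter cells for 4 h at 37C with doxycycline. Green/red ratio, after filter-overlap correction, defined %Activity; red signal alone was normalised to basal cells and zero luminescence.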
Potency is read from the fitted curve at half-maximal effect.

SMILES	activity change, negative = inhibition	Potency
COCCNc1c2c(nc3c(-c4ccccc4)c(C)nn13)CCC2	inactive: 20.1%	–
CCc1nn2c(=O)cc(COC(=O)c3cc(Cl)c(OC)c(OC)c3)nc2s1	inconclusive: -5.44%	–
O=C(OC(C(=O)NCc1ccccc1)c1ccccc1F)c1ccco1 (stereo unspecified)	inactive: 2.78%	–
COc1cccc2cc(C(=O)NNC(=O)c3ccc(Br)cc3)c(=O)oc12	inactive: -2.04%	–
COc1ccccc1C(=O)N(Cc1cccs1)C1CCS(=O)(=O)C1 (stereo unspecified)	inconclusive: 7.66%	–
Cc1ccc(C(=O)n2c(=S)nc3ccccn32)cc1	–	inconclusive: 0.58 µM [falling, full curve, poor fit]
Cc1ccc(NC(=O)NNC(=O)c2ccccc2)cc1	–	inconclusive: 22.4 µM [falling, single point]
CCN1C=CC(=C2C(=O)c3ccccc3C2=O)C=C1	–	inconclusive: 22.4 µM [falling, partial curve]
CCCCOc1cccc(NC(=O)CSc2nccn2C)c1	inconclusive: 11%	–
COc1ccccc1C(=O)NNC(=O)c1ccc(Br)o1	–	inconclusive: 12.6 µM [falling, single point]
S=c1[nH]nc(-c2ccccn2)n1/N=C/c1ccc(Cl)c(Cl)c1	inactive: 7.14%	–
Cc1cc(C)cc(NC(=O)N2CCCN(Cc3c(F)cccc3Cl)CC2)c1	–	inconclusive: 11.2 µM [falling, partial curve, poor fit]
Cc1nc(/C=C/c2ccccc2)[nH]c(=O)c1-c1ccccc1	inconclusive: 8.3%	–
CC1(C)CC(=O)C=C(Nc2ccccc2)C1	inconclusive: -16.5%	–
Cn1c2c(c3ccccc31)CCN1CCC[C@]21c1ccccc1	inconclusive: 4.08%	–
CCc1ccc(OCC(=O)NC(NC(=S)Nc2ccccc2C)C(Cl)(Cl)Cl)cc1 (stereo unspecified)	inconclusive: 14.3%	–
CC(C)[C@H](NC(=O)c1c(F)cccc1F)C(=O)Nc1cccc(Br)c1	inconclusive: 1.12%	–
NC(=S)N/N=C/c1ccc(-c2cc(Cl)c(Cl)cc2Cl)o1	–	inconclusive: 12.6 µM [falling, single point]
O=C(O)Cc1csc(Nc2cccc(Cl)c2)n1	inconclusive: 8.17%	–
O=c1c(-c2ccccc2)c(O)c2ccccc2n1-c1ccccc1	inconclusive: -0.37%	–
O=C(Nc1ccc2c(c1)OCCO2)c1cccc(Cl)c1Cl	inconclusive: -18.8%	–

Sorted by heavy-atom count (descending): six of the compounds above
SMILES	activity change, negative = inhibition	Potency
CC(C)[C@H](NC(=O)c1c(F)cccc1F)C(=O)Nc1cccc(Br)c1	inconclusive: 1.12%	–
S=c1[nH]nc(-c2ccccn2)n1/N=C/c1ccc(Cl)c(Cl)c1	inactive: 7.14%	–
NC(=S)N/N=C/c1ccc(-c2cc(Cl)c(Cl)cc2Cl)o1	–	inconclusive: 12.6 µM [falling, single point]
CCN1C=CC(=C2C(=O)c3ccccc3C2=O)C=C1	–	inconclusive: 22.4 µM [falling, partial curve]
O=C(O)Cc1csc(Nc2cccc(Cl)c2)n1	inconclusive: 8.17%	–
CC1(C)CC(=O)C=C(Nc2ccccc2)C1	inconclusive: -16.5%	–

Going on with the list.

SMILES	activity change, negative = inhibition	Potency
O=C(NC(=S)Nc1ccc2oc(-c3cccnc3)nc2c1)c1cccc(Cl)c1	inactive: -7.15%	–
CCOc1ccccc1C(=O)NC1CC2CCCC(C1)N2Cc1nnnn1Cc1ccco1 (stereo unspecified)	inconclusive: -2.54%	–
O=C(CN1CCc2ccccc2C1)NCC(=O)Nc1ccc(F)cc1	–	inconclusive: 11.2 µM [falling, partial curve]
O=C(N/N=C/c1c[nH]c2ccccc12)c1cccc(Cl)c1	–	inconclusive: 12.6 µM [falling, partial curve, poor fit]
N#Cc1nc(-c2ccc(Cl)cc2)oc1N1CCCCC1	inconclusive: 16.1%	–
O=C(Nc1ccccc1O)c1csc2c1CCCC2	inconclusive: -6.78%	–
O=C(Cn1ncc2c([nH]c3ccccc32)c1=O)Nc1cccnc1	inactive: -2.63%	–
O=C(CCCn1c(=S)[nH]c2ccc(Br)cc2c1=O)N1CCN(c2ccccn2)CC1	–	inconclusive: 35.5 µM [falling, single point]
Nc1ccccc1C(=O)Nc1cccc(C(=O)O)c1	–	inconclusive: 11.2 µM [falling, partial curve]
CS(=O)(=O)N(CC(=O)N1CCN(c2ccccc2F)CC1)C1CCCCC1	inactive: 4.31%	–
COc1cccc(Cn2nnc(C(=O)Nc3cc(C)ccc3OC)c2N)c1	inconclusive: -1.72%	–
CC(=O)Nc1ccc(NC(=O)C(Cc2ccccc2)NC(=O)C2CCC(C)CC2)cc1 (stereo unspecified)	inactive: 0.0405%	–
CC1CCN(c2c([N+](=O)[O-])c(=O)n(-c3ccccc3)c3ccccc23)CC1	inconclusive: -8.34%	–
CCOc1ccc(C(=S)N2CCCC2)c(OCC)c1	inactive: 3.19%	–
CCOCCCNC(=O)C1CCN(S(=O)(=O)N2CCCC2)CC1	inconclusive: -26.3%	–
Cc1ccc(C(=O)COC(=O)c2ccco2)cc1C	inconclusive: 9.52%	–
CCn1cc(CN2CCN(C)C(CCO)C2)c2ccccc21 (stereo unspecified)	inconclusive: -4.36%	–
CCN(CC)c1nc(OCCNC(=O)Nc2ccccc2)nc(N(CC)CC)n1	inconclusive: 23.1%	–
COc1ccc(C)cc1NC(=O)C(Sc1nnc(Nc2ccccc2F)s1)c1ccccc1 (stereo unspecified)	inconclusive: 18.9%	–
COCC(C)NCc1ccc(C)cc1C (stereo unspecified)	inconclusive: 3.41%	–
Clc1cccc(-c2nn3c(Cn4cnc5ccccc54)nnc3s2)c1	inconclusive: -5.61%	–

SMILES	activity change, negative = inhibition	Potency
Cc1ccc2nc3sc(-c4nnc(-c5ccccc5[N+](=O)[O-])o4)c(N)c3cc2c1	inconclusive: -8.01%	–
NC(=S)N/N=C/c1coc2ccc(O)cc2c1=O	–	inconclusive: 0.631 µM [rising, full curve]
CCOc1ccc(CN2CCN(Cc3cccn3-c3ncccn3)CC2CCO)cc1 (stereo unspecified)	–	inconclusive: 4.47 µM [falling, full curve, poor fit]
COc1ccc(C)cc1-n1cnc2cc(C(=O)NC3CCCC3)ccc21	inactive: -8.29%	–
O=C(c1ccc(S(=O)(=O)Nc2ccccc2)cc1)N1CCC1	inconclusive: 12.2%	–
CCOC(=O)Cn1c(=O)c2c(nc3n2CC(C)CN3Cc2ccccc2)n(C)c1=O (stereo unspecified)	inconclusive: 3.97%	–
COc1ccc(-c2csc(N3CCN(c4cc(C)nc5ccccc45)CC3)n2)cc1OC	–	inconclusive: 20 µM [falling, single point]
O=C(O)C1CCCN(S(=O)(=O)Cc2ccccc2)C1 (stereo unspecified)	inconclusive: 5.56%	–
N#C/C(=C/c1ccc(N2CCOCC2)o1)c1ccc(Cl)cc1	–	inconclusive: 17.8 µM [falling, partial curve]
O=C(NCCC1=CCCCC1)c1ccc(F)cc1	–	inconclusive: 16.4 µM [falling, single point]
CN1CCN(CCNC(=O)Nc2ccc([N+](=O)[O-])cc2)CC1	inconclusive: 13.9%	–
Cc1ccccc1CSCC(=O)NCc1ccco1	inconclusive: 1.87%	–
COc1ccc(/C=C/C(=O)NC(=S)NNC(=O)c2cnccn2)cc1	inconclusive: 5.45%	–
COc1cc(CNCCN2CCOCC2)ccc1OCc1cccc(Cl)c1	–	inconclusive: 23.1 µM [rising, single point]
CC(C)(C)NC(=O)C(c1ccc(-c2ccccc2)cc1)N(C[C@H]1CC[C@@H]([C@@H]2CC[C@H](CO)O2)O1)C(=O)c1ccccc1F (stereo partly specified)	–	inconclusive: 23.1 µM [falling, partial curve, poor fit]
COc1ccc(CC(=O)N(Cc2ccccc2)C(C)C)cc1	inconclusive: 5.39%	–
CCOC(=O)N1CCN(Cc2ccc3c(c2)OCO3)CC1	inactive: -3.01%	–
COc1ccc(-n2cccc2/C=C2\C(=N)N3N=C(c4ccco4)SC3=NC2=O)cc1	–	inconclusive: 2.82 µM [falling, full curve]
CC(=O)Nc1cccc(C(=O)N/N=C/c2cccnc2)c1	–	inconclusive: 35.5 µM [falling, single point]
COc1cc([N+](=O)[O-])cc2sc(NC(C)=O)nc12	inconclusive: 3.98%	–
c1ccc(CN2CCN(CCCNc3ccc4nnc(-c5ccccc5)n4n3)CC2)cc1	inconclusive: -1.3%	–

SMILES	activity change, negative = inhibition	Potency
O=[N+]([O-])/C(C(Cl)=C(Cl)Cl)=C1\Nc2ccccc2O1	–	inconclusive: 11.2 µM [falling, partial curve, poor fit]
CC(NS(=O)(=O)c1ccc(Br)cc1)C(c1cccs1)N1CCN(C)CC1 (stereo unspecified)	inactive: -5.38%	–
COCCOC(=O)C1=C(C)NC(=O)NC1c1ccc(-c2cc(Cl)ccc2Cl)o1 (stereo unspecified)	inactive: -32.3%	–
Cc1sc2ncnc(NCc3ccco3)c2c1C	inconclusive: 1.04%	–
COc1cc(-c2nc(CCNC(=O)c3ccco3)cs2)cc(OC)c1OC	–	inconclusive: 28.2 µM [falling, single point]
Cc1cc(C)c2c(c1)c1nnc(SCCN3CCOCC3)nc1n2C	inactive: -0.931%	–
CCS(=O)(=O)N1N=C(c2ccccc2)CC1c1ccc2nccnc2c1 (stereo unspecified)	inconclusive: -0.18%	–
O=C(CSCc1cnn(-c2ccccc2)c1-n1cccc1)NCc1cccnc1	inconclusive: 0.892%	–
Cc1ccc(C)c(-c2nnc(NC(=O)CCS(=O)(=O)c3ccccc3)o2)c1	inactive: 3.47%	–
O=C(N/N=C/c1c[nH]c2ccccc12)c1ccccc1	–	inconclusive: 22.4 µM [falling, single point]
CC(C)(C)C(=O)Nc1nc(-c2ccc3c(c2)OCO3)cs1	–	inconclusive: 1.84 µM [rising, partial curve, poor fit]
C[C@H](NC(=O)c1nc[nH]c1C(=O)N[C@@H](Cc1ccccc1)C(=O)OCc1ccccc1)C(=O)OC(C)(C)C	–	inconclusive: 14.1 µM [rising, partial curve]
CC1=C(CC(=O)O)c2cc(F)ccc2C1=Cc1ccc(S(C)(=O)=O)cc1	–	inconclusive: 7.31 µM [rising, partial curve, poor fit]
CCCC(O)(c1ccc(Br)cc1)C(CN1CCOCC1)c1ccc(Cl)cc1 (stereo unspecified)	inconclusive: 0.226%	–
COc1ccccc1N(C)S(=O)(=O)c1ccc(C(=O)NCCc2ccc(F)cc2)cc1	inconclusive: -14.7%	–
CCCN1CCN(S(=O)(=O)c2ccc3c(c2)CCC(=O)N3)CC1	inactive: -0.714%	–
Cc1ccc(CN2CCSc3ccc(C(=O)NCC4CCCO4)cc32)cc1 (stereo unspecified)	inactive: 6.92%	–
Cc1ccnc(NC(=O)CNC(=O)c2sc3ccccc3c2Cl)c1	inconclusive: 10.2%	–
